# The other results are listed elsewhere or left out. Small differences around the control level are noise.
# Chains of the proteins cited; added tags and fusions are not shown. Lines headed by an entry give the natural chain unless they say otherwise; changes in a name come on top.
# UniProt Q9Y3T6: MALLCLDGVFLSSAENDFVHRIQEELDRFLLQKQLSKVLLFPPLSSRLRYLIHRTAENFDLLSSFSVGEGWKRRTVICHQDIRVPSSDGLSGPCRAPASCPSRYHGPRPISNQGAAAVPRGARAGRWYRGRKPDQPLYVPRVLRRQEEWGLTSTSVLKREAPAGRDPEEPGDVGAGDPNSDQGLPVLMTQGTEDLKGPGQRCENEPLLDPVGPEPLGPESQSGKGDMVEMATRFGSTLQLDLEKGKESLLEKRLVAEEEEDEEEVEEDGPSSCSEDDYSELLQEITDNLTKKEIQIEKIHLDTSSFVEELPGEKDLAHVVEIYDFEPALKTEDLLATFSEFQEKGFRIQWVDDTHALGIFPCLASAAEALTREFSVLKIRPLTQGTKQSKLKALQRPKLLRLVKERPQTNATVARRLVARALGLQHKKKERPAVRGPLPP
# UniProt Q9Y5X2: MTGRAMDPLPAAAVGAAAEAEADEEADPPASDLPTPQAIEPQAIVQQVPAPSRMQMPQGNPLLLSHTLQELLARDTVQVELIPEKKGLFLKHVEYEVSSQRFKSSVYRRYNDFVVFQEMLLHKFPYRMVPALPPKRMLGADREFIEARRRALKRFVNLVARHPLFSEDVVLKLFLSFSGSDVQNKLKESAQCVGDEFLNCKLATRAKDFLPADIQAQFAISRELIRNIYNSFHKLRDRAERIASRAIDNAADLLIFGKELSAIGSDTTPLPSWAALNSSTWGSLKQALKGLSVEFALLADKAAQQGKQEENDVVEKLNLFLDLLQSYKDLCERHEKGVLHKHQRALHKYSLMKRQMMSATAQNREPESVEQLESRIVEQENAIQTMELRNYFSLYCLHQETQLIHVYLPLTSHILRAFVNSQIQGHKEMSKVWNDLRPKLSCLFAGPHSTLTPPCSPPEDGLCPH
# UniProt Q9Y4U1: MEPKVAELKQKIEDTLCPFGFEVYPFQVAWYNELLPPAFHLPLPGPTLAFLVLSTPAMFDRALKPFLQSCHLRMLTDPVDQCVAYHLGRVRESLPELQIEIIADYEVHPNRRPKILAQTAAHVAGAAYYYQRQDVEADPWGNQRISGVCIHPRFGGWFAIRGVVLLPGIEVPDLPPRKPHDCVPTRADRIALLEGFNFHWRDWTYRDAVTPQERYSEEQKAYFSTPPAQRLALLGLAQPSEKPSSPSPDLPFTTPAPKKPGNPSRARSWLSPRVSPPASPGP
# UniProt Q9Y5M8: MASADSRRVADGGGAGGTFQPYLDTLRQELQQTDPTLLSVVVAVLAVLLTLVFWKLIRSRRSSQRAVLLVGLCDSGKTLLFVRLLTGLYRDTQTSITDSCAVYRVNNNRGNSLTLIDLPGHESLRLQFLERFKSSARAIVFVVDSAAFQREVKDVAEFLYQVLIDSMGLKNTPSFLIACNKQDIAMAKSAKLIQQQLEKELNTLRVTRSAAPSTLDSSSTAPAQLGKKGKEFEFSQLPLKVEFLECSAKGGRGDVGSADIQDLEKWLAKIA
# UniProt Q9Y679: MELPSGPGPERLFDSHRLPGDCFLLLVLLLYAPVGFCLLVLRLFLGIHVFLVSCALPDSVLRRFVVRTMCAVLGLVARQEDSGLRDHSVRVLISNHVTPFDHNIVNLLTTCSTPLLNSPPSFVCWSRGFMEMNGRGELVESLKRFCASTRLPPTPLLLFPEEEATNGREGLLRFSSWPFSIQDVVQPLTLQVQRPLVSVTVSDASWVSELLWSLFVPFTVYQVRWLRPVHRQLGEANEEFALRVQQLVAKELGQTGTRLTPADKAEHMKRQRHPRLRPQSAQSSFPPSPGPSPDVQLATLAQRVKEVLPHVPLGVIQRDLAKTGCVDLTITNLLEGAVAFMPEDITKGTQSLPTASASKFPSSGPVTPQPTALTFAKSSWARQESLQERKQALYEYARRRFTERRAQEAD
# UniProt Q9Y696: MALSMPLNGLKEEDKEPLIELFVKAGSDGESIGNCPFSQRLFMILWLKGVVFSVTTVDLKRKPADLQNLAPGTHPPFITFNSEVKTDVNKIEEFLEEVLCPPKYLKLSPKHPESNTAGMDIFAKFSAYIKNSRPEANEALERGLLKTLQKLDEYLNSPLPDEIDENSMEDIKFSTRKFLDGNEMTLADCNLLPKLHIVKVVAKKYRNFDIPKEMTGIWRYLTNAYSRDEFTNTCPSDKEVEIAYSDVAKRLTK
# UniProt Q9Y5W9: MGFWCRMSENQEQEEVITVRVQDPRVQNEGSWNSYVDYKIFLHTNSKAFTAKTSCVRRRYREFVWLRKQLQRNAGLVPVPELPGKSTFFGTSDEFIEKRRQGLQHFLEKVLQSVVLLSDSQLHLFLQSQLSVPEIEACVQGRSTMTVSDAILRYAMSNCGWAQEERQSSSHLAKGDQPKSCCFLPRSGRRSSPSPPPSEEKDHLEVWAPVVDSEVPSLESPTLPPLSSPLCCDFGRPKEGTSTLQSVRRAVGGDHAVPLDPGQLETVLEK
# UniProt Q9Y5P4: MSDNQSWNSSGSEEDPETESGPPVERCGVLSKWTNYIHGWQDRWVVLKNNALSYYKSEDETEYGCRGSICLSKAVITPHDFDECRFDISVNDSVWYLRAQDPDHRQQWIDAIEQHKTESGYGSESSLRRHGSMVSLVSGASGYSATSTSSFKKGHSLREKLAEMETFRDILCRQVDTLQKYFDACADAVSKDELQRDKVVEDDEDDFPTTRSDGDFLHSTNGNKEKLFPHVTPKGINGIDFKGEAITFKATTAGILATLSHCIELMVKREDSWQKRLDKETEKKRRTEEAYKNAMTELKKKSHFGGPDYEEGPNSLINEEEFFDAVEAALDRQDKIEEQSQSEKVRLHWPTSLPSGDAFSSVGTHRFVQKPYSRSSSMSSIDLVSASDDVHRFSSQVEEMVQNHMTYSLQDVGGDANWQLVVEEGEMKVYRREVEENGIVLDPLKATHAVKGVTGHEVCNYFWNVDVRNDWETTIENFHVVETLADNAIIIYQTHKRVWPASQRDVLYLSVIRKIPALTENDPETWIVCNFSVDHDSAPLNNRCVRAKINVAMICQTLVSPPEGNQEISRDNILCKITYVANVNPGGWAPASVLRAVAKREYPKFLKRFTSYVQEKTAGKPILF
# UniProt Q9Y490: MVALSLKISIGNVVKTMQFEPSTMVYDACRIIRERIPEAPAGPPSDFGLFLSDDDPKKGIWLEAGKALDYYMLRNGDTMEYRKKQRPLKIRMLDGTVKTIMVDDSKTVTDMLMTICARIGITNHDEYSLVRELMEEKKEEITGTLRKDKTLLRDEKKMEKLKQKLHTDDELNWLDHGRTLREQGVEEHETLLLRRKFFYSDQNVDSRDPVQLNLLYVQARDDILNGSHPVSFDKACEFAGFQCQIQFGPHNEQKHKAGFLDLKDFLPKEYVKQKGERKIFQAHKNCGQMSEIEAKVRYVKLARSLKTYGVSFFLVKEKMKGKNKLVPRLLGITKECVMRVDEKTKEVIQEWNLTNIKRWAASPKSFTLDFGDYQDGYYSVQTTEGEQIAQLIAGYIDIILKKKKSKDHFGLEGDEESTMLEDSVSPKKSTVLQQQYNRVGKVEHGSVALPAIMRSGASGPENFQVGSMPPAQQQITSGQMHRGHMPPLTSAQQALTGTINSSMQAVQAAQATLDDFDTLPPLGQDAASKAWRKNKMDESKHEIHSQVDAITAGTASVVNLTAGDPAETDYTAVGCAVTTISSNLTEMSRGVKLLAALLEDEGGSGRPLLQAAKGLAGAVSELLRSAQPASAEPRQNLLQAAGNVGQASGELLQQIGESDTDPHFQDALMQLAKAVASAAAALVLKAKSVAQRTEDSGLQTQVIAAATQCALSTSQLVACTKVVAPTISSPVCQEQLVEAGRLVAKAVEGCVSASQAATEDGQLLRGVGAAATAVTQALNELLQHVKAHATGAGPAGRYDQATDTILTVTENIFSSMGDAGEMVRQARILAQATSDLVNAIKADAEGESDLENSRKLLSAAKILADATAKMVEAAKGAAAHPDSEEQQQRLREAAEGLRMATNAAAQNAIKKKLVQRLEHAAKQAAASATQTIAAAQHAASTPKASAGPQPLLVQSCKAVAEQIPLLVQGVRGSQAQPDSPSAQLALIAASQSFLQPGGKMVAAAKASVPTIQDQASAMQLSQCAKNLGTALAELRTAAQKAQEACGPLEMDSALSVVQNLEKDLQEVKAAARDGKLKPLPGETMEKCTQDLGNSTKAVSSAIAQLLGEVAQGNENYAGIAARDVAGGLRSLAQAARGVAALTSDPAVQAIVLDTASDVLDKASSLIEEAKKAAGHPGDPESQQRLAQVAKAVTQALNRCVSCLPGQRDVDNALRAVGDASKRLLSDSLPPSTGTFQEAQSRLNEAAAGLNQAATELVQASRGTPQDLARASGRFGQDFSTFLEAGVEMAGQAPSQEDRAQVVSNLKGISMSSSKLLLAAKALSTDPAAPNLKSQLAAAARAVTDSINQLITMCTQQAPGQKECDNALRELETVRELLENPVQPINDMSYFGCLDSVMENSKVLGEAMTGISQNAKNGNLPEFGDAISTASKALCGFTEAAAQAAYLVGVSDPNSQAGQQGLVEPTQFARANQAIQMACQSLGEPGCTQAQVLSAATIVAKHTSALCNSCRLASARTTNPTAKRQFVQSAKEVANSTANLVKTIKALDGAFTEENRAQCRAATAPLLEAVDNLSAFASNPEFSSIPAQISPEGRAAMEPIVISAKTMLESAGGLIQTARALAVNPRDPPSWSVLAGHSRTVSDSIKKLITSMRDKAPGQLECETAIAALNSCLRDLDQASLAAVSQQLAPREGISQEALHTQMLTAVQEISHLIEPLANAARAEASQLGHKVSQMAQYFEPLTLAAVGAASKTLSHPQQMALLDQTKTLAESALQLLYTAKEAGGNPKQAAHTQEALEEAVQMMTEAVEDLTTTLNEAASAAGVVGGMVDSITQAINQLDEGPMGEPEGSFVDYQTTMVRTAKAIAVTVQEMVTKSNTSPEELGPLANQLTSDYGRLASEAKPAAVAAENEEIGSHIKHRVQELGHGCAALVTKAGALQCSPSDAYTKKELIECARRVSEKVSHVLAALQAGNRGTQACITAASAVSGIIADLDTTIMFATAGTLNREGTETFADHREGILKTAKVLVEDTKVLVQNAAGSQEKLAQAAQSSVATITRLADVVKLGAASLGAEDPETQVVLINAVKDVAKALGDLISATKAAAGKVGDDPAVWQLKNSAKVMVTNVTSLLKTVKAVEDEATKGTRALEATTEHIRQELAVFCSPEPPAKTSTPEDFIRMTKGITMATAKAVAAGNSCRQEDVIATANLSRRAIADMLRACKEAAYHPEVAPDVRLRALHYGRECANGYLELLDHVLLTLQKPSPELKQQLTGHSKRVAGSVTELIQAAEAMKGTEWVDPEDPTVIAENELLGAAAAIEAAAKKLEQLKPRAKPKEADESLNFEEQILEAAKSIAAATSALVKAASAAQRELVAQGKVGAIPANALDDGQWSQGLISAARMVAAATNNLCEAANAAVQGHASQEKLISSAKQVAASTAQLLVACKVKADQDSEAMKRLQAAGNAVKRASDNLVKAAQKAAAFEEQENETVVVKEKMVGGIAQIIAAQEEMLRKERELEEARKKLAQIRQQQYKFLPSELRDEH
# UniProt Q9Y605: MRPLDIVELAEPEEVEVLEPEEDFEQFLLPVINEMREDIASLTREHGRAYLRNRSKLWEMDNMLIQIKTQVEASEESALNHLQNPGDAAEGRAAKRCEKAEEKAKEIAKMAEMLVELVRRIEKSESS
# UniProt Q9Y4I5: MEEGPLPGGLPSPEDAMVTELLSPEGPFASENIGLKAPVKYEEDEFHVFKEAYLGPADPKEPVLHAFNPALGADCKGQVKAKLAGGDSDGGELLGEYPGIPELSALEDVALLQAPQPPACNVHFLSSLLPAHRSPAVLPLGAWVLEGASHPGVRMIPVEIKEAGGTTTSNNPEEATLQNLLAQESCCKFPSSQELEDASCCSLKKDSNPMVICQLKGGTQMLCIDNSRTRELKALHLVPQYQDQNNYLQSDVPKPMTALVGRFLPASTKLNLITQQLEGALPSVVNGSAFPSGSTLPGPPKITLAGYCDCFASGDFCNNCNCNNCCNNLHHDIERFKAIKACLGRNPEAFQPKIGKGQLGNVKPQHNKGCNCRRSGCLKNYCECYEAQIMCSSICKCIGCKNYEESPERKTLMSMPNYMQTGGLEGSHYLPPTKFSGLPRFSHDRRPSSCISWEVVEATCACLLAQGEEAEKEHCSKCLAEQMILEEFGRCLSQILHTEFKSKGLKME
# UniProt Q9Y624, whole entry, stated change not applied: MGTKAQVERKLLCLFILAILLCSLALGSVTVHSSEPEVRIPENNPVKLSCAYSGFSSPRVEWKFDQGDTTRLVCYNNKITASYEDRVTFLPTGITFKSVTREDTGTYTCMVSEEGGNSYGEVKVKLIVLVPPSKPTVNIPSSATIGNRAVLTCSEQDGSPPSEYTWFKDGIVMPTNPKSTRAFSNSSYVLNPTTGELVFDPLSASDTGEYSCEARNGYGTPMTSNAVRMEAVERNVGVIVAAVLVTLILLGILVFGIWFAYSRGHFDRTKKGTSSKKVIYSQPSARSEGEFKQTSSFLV
# Compound: CN[C@@H]1C[C@H]2O[C@@](C)([C@@H]1OC)n1c3ccccc3c3c4c(c5c6ccccc6n2c5c31)C(=O)NC4 [staurosporine]
# Test: log2 fold change of tryptic peptide abundance, ligand vs vehicle (limited proteolysis) (log2 ratio); higher = more trypsin-susceptible (destabilized)
# Settings: ligand concentration: 20 uM; sample: K562 cleared lysate; digestion: 4 min, 22 C (HT-PELSA RT4min, Orbitrap Astral)
row,Target,log2 fold change
1,"ATP6V1D (peptide sequence: EREEFYR, peptide start residue: 195) (UniProt Q9Y5K8)",0.327
2,"R3HCC1 (peptide sequence: DLAHVVEIYDFEPALK, peptide start residue: 315) (UniProt Q9Y3T6)",0.22
3,"SNX8 (peptide sequence: LKESAQCVGDEFLNCK, peptide start residue: 186) (UniProt Q9Y5X2)",0.306
4,"MMACHC (peptide sequence: IALLEGFNFHWR, peptide start residue: 190) (UniProt Q9Y4U1)",0.26
5,"SRPRB (peptide sequence: SAAPSTLDSSSTAPAQLGKK, peptide start residue: 209) (UniProt Q9Y5M8)",-0.134
6,"AUP1 (peptide sequence: LTPADKAEHMK, peptide start residue: 259) (UniProt Q9Y679)",0.351
7,"MRPS18C (peptide sequence: HITGLCGK, peptide start residue: 95) (UniProt Q9Y3D5)",0.215
8,"CLIC4 (peptide sequence: EMTGIWR, peptide start residue: 213) (UniProt Q9Y696)",0.171
9,"MTF2 (peptide sequence: DSTGAGNSLVHK, peptide start residue: 3) (UniProt Q9Y483)",0.477
10,"SNX11 (peptide sequence: GDQPKSCCFLPR, peptide start residue: 175) (UniProt Q9Y5W9)",-0.4
11,"UniProt Q9Y5P4 (peptide sequence: YFDACADAVSKDELQR, peptide start residue: 181)",-0.216
12,"LRRC42 (peptide sequence: YLVISEKLEEIK, peptide start residue: 159) (UniProt Q9Y546)",0.666
13,"TLN1 (peptide sequence: KIFQAHK, peptide start residue: 278) (UniProt Q9Y490)",0.41
14,"MRFAP1 (peptide sequence: MAEMLVELVR, peptide start residue: 110) (UniProt Q9Y605)",0.0867
15,"TESMIN (peptide sequence: EPVLHAFNPALGADCK, peptide start residue: 61) (UniProt Q9Y4I5)",-0.295
16,"MRPS16 (peptide sequence: EVLLASQK, peptide start residue: 117) (UniProt Q9Y3D3)",0.0945
17,"F11R (peptide sequence: VIYSQPSAR, peptide start residue: 278) (UniProt Q9Y624)",-0.547
18,"KPTN (peptide sequence: GELLAATLK, peptide start residue: 39) (UniProt Q9Y664)",0.028

# From entry 5 as far as 6, copied from above:
row,Target,log2 fold change
5,"SRPRB (peptide sequence: SAAPSTLDSSSTAPAQLGKK, peptide start residue: 209) (UniProt Q9Y5M8)",-0.134
6,"AUP1 (peptide sequence: LTPADKAEHMK, peptide start residue: 259) (UniProt Q9Y679)",0.351

# From the supplement of paper PMC12819154, “High-throughput peptide-centric local stability assay extends protein–ligand identification to membrane proteins, tissues and bacteria” (Nature Structural & Molecular Biology, 2025)
